Values quoted from earlier work as cited in patent publication US10890577B2, “Treatment methods having reduced drug-related toxicity and methods of identifying the likelihood of patient harm from prescribed medications” (TABULA RASA HEALTHCARE, INC., priority 2016, dated 2021).
Some of these results come from one statement about several compounds together.

Test system: Torsades de Pointes
Conditions: in vivo; cited from earlier work

Row | SMILES | cause Torsades de Pointes in patients
1 | CN(CCOc1ccc(NS(C)(=O)=O)cc1)CCc1ccc(NS(C)(=O)=O)cc1 [dofetilide] | 1-5 % of patients
2 | C=C[C@H]1C[N@@]2CC[C@H]1C[C@@H]2[C@@H](O)c1ccnc2ccc(OC)cc12 [quinidine] | 1-5 % of patients
